Results are given in words; binding and its absence hold for the method and conditions named. Binding seen in cells or lysates may run through a third protein. For some assays here: Binding calls can cover weak binding; strength is not graded here. Tags and fused reporters may be left off the sequences shown.
Tests used:
[1] = molecular target: T1, GST-AMSH1 (Arabidopsis) (Arabidopsis thaliana) (UniProt Q8VYB5); assay: pull-down
T1 sequence: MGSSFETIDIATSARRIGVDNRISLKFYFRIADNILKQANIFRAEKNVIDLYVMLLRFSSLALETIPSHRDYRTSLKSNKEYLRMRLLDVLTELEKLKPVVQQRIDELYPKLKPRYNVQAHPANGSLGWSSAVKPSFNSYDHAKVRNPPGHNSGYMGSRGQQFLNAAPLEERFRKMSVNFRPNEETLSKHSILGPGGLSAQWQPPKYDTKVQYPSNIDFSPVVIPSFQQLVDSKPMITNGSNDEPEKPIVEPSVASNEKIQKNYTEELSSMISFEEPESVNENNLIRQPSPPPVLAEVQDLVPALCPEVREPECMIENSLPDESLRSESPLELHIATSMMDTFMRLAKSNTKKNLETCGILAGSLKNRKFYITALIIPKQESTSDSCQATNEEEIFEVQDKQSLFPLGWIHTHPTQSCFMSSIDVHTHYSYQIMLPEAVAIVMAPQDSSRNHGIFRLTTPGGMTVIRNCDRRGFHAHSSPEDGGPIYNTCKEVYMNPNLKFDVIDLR

[2] = molecular target: T2, GST-AMSH2 (Arabidopsis) (Arabidopsis thaliana) (UniProt Q6NKP9); assay: pull-down
T2 sequence: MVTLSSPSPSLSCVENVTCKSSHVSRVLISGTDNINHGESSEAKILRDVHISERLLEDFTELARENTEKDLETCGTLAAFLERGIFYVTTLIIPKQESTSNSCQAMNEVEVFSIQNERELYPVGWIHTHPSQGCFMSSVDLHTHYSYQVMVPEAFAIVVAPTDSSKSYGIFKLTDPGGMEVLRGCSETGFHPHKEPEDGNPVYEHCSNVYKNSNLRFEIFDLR

[3] = molecular target: T3, GST-AMSH3 (Arabidopsis) (Arabidopsis thaliana) (UniProt Q5PNU3); assay: pull-down
T3 sequence: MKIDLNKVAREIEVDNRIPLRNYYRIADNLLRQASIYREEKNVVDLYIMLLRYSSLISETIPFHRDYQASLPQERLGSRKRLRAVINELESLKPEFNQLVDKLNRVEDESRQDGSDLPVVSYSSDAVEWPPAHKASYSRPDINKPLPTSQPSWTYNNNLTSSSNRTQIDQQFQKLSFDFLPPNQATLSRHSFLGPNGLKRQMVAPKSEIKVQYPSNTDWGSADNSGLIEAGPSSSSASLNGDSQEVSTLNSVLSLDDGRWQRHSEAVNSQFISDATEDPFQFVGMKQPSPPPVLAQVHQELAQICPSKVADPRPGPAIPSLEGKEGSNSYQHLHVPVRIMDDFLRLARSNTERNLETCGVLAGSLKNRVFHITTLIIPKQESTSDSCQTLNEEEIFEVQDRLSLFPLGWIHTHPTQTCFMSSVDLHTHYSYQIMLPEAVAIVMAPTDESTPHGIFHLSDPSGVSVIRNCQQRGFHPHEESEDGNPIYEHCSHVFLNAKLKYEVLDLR

[4] = molecular target: T4, eGFP-AMSH2 (Arabidopsis AMSH2) (Arabidopsis thaliana) (UniProt Q6NKP9); assay: co-IP
T4 sequence: T2 sequence

[5] = molecular target: T5, eGFP-AMSH3 (Arabidopsis AMSH3) (Arabidopsis thaliana) (UniProt Q5PNU3); assay: co-IP
T5 sequence: T3 sequence

His-Mp10 (Myzus persicae)
binding [1]: binds
binding [2]: binds
binding [3]: binds

Flag-Mp10 (Myzus persicae)
binding [4]: binds
binding [5]: no binding
